± gives the standard deviation of the averaged measurements. Most entries show no effect beyond the scatter of the controls.
Experiments:
Assay in all cases: level (log10 ratio to DMSO vehicle control); higher = higher biomarker level / cell amount than vehicle control
[1] = compound: C=C(C)C(=O)OCCC(F)(F)C(F)(F)C(F)(F)C(F)(F)C(F)(C(F)(F)F)C(F)(F)F [(Perfluoro-5-methylhexyl)ethyl 2-methylprop-2-enoate]; conditions: in DMSO
Experimental: (§1)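 BioMAP Diversity Plus panel of 12 human primary cell co-culture systems (3C, 4H, LPS, SAg, BT, BF4T, BE3C, CASM3C, HDF3CGF, KF3CT, MyoF, Mphg). Compounds were added 1 h before stimulation and left for 24 h (MyoF 48 h; BT 72 h for soluble read-outs or 6 d for IgG). Biomarkers were read by ELISA, cytotoxicity by SRB, PBMC viability and proliferation by Alamar Blue. Each well value was divided by the mean of 8 DMSO control wells on the same plate and log10 transformed; duplicate blinded samples were tested at 4 concentrations.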

[2] = compound: C=C(C)C(=O)OCCC(F)(F)C(F)(F)C(F)(F)C(F)(F)C(F)(F)C(F)(F)C(F)(F)C(F)(F)F [8:2 Fluorotelomer methacrylate]; conditions: in DMSO
Experimental: as §1

[3] = compound: COC(=O)CCC(F)(F)C(F)(F)C(F)(F)C(F)(F)F [Methyl 2H,2H,3H,3H-perfluoroheptanoate]; conditions: 2200 nM; in DMSO
Experimental: as §1

[4] = compound: FC(F)(F)C(F)(F)C(F)(F)C(F)(F)C(F)(F)CCI [1-Iodo-1H,1H,2H,2H-perfluoroheptane]; conditions: 2200 nM; in DMSO
Experimental: as §1

Octafluoroadipamide = compound: NC(=O)C(F)(F)C(F)(F)C(F)(F)C(F)(F)C(N)=O [Octafluoroadipamide]; conditions: 2200 nM; in DMSO
Experimental: as §1

Nonafluoropentanamide = compound: NC(=O)C(F)(F)C(F)(F)C(F)(F)C(F)(F)F [Nonafluoropentanamide]; conditions: 2200 nM; in DMSO
Experimental: as §1

[5] = compound: NS(=O)(=O)C(F)(F)C(F)(F)C(F)(F)C(F)(F)C(F)(F)C(F)(F)F [Perfluorohexanesulfonamide]; conditions: 2200 nM; in DMSO
Experimental: as §1

Tetrafluorosuccinic acid = compound: O=C(O)C(F)(F)C(F)(F)C(=O)O [Tetrafluorosuccinic acid]; conditions: 2200 nM; in DMSO
Experimental: as §1

[6] = compound: O=C(O)C(F)(F)C(F)(F)C(F)(F)C(F)(F)C(F)(F)C(F)(F)C(F)(F)C(F)(F)Cl [9-Chloro-perfluorononanoic acid]; conditions: in DMSO
Experimental: as §1

[7] = compound: O=C(O)CCC(F)(F)C(F)(F)C(F)(F)C(F)(F)C(F)(F)F [2H,2H,3H,3H-Perfluorooctanoic acid]; conditions: 2200 nM; in DMSO
Experimental: as §1

[8] = compound: O=S(=O)(O)C(F)(F)C(F)(F)OC(F)(F)C(F)(F)F [Perfluoro(2-ethoxyethane)sulfonic acid]; conditions: 2200 nM; in DMSO
Experimental: as §1

[9] = compound: O=S(=O)(O)CCC(F)(F)C(F)(F)C(F)(F)C(F)(F)C(F)(F)C(F)(F)F [6:2 Fluorotelomer sulfonic acid]; conditions: in DMSO
Experimental: as §1

Perfluoropinacol = compound: OC(C(F)(F)F)(C(F)(F)F)C(O)(C(F)(F)F)C(F)(F)F [Perfluoropinacol]; conditions: in DMSO
Experimental: as §1

[10] = compound: OCCC(F)(F)C(F)(F)C(F)(F)C(F)(F)F [4:2 Fluorotelomer alcohol]; conditions: 2200 nM; in DMSO
Experimental: as §1

Row | Test System | level (log10) ([1]; 740 nM) | level (log10) ([1]; 2200 nM) | level (log10) ([1]; 6700 nM) | level (log10) ([1]; 20000 nM) | level (log10) ([2]; 740 nM) | level (log10) ([2]; 2200 nM) | level (log10) [3] | level (log10) [4] | level (log10) (Octafluoroadipamide) | level (log10) (Nonafluoropentanamide) | level (log10) [5] | level (log10) (Tetrafluorosuccinic acid) | level (log10) ([6]; 2200 nM) | level (log10) ([6]; 6700 nM) | level (log10) ([6]; 20000 nM) | level (log10) [7] | level (log10) [8] | level (log10) ([9]; 2200 nM) | level (log10) ([9]; 6700 nM) | level (log10) ([9]; 20000 nM) | level (log10) ([9]; 60000 nM) | level (log10) (Perfluoropinacol; 2200 nM) | level (log10) (Perfluoropinacol; 6700 nM) | level (log10) (Perfluoropinacol; 20000 nM) | level (log10) [10]
1 | LPS:sPGE2 | -0.0175 ± 0.026 | -0.025 ± 0.05 | -0.038 ± 0.05 | -0.016 ± 0.064 | -0.0525 ± 0.035 | -0.081 ± 0.013 | 0.0255 ± 0.04 | -0.0055 ± 0.0078 | 0.0525 ± 0.00071 | -0.0125 ± 0.023 | 0.001 ± 0.062 | -0.005 ± 0.0057 | 0.007 ± 0.035 | 0.0175 ± 0.0092 | -0.0895 ± 0.0078 | -0.049 ± 0.031 | -0.0005 ± 0.0078 | -0.0035 ± 0.012 | -0.008 ± 0.023 | -0.0215 ± 0.047 | -0.0345 ± 0.029 | 0.0195 ± 0.032 | 0.086 ± 0.038 | 0.182 ± 0.015 | -0.033 ± 0.013
2 | lMphg:CCL3/MIP-1alpha | 0.014 ± 0.0028 | 0.025 ± 0.061 | -0.008 ± 0.034 | -0.0125 ± 0.044 | 0.0035 ± 0.03 | -0.01 ± 0.0028 | -0.0045 ± 0.032 | 0.038 ± 0.0042 | -0.0065 ± 0.019 | 0.0005 ± 0.025 | 0.0035 ± 0.0078 | 0.0095 ± 0.00071 | 0.034 ± 0.065 | 0.0205 ± 0.029 | 0.0045 ± 0.046 | 0.038 ± 0.079 | 0.021 ± 0.0028 | 0.0185 ± 0.053 | 0.014 ± 0.021 | 0.072 ± 0.02 | 0.0565 ± 0.039 | 0.0775 ± 0.049 | 0.116 ± 0.047 | 0.116 ± 0.062 | -0.003 ± 0.045
3 | BE3C:HLA-DR | -0.0015 ± 0.016 | -0.0065 ± 0.015 | -0.0115 ± 0.0078 | -0.0045 ± 0.0078 | -0.0015 ± 0.012 | -0.0095 ± 0.0035 | 0.0025 ± 0.022 | -0.005 ± 0.0014 | 0.0135 ± 0.015 | 0.0165 ± 0.0035 | -0.0035 ± 0.0064 | -0.0055 ± 0.04 | -0.0155 ± 0.044 | -0.0575 ± 0.025 | -0.445 ± 0.052 | 0.0015 ± 0.0064 | -0.0095 ± 0.011 | -0.0055 ± 0.0021 | -0.0135 ± 0.021 | -0.0175 ± 0.012 | -0.024 ± 0.0099 | 0.001 ± 0.0085 | -0.0145 ± 0.0064 | -0.0565 ± 0.019 | -0.0035 ± 0.042
4 | lMphg:sIL-10 | 0.0105 ± 0.06 | 0.047 ± 0.02 | 0.0215 ± 0.029 | -0.0195 ± 0.12 | -0.0485 ± 0.054 | -0.034 ± 0.024 | -0.0045 ± 0.021 | 0.0345 ± 0.047 | -0.0515 ± 0.029 | 0.028 ± 0.096 | 0.0115 ± 0.016 | -0.0465 ± 0.013 | 0.0345 ± 0.012 | 0.0205 ± 0.0078 | -0.015 ± 0.0085 | -0.0335 ± 0.069 | -0.0095 ± 0.0021 | 0.0045 ± 0.04 | -0.025 ± 0.037 | -0.015 ± 0.02 | -0.049 ± 0.0057 | 0.0645 ± 0.005 | 0.031 ± 0.017 | -0.498 ± 0.24 | -0.0255 ± 0.023
5 | BE3C:uPA | 0.008 ± 0.02 | -0.0025 ± 0.018 | -0.001 ± 0.016 | -0.0005 ± 0.016 | 0.005 ± 0.02 | -0.016 ± 0.042 | -0.025 ± 0.023 | 0.002 ± 0.0014 | 0.003 ± 0.024 | 0.0025 ± 0.012 | -0.0145 ± 0.044 | -0.002 ± 0.0099 | 0.001 ± 0.016 | 0.0035 ± 0.011 | -0.0125 ± 0.011 | 0.004 ± 0.0057 | 0.0065 ± 0.015 | -0.0045 ± 0.012 | -0.008 ± 0.0099 | -0.005 ± 0.0028 | 0.01 ± 0.0057 | -0.001 ± 0.0028 | -0.0055 ± 0.005 | -0.042 ± 0.011 | -0.029 ± 0.035
6 | BF4T:uPA | -0.009 ± 0.0028 | -0.0425 ± 0.032 | -0.0295 ± 0.0064 | -0.063 ± 0.0014 | 0.0105 ± 0.0092 | -0.009 ± 0.0042 | -0.012 ± 0.031 | 0.008 ± 0.013 | -0.0275 ± 0.0078 | -0.013 ± 0.0042 | -0.0065 ± 0.0092 | 0.003 | -0.006 ± 0.011 | -0.0045 ± 0.012 | -0.01 ± 0.0071 | -0.0015 ± 0.026 | 0.0095 ± 0.023 | 0.009 ± 0.028 | 0.0085 ± 0.019 | -0.013 ± 0.0028 | -0.001 ± 0.018 | -0.0125 ± 0.0078 | -0.0305 ± 0.019 | -0.0365 ± 0.0064 | -0.022 ± 0.024
7 | BF4T:CD90 | 0.004 ± 0.021 | 0.0065 ± 0.00071 | 0.011 | 0 ± 0.0085 | 0.001 ± 0.0028 | -0.016 ± 0.0014 | -0.0085 ± 0.016 | 0.0015 ± 0.011 | 0.0005 ± 0.0078 | -0.0005 ± 0.0021 | 0.006 ± 0.014 | -0.0085 ± 0.0092 | -0.032 ± 0.024 | -0.034 ± 0.013 | -0.0285 ± 0.005 | -0.0105 ± 0.0064 | -0.011 ± 0.0099 | -0.009 ± 0.013 | -0.029 ± 0.017 | -0.028 ± 0.0085 | -0.031 ± 0.0042 | -0.0015 ± 0.0092 | -0.015 ± 0.017 | -0.024 ± 0.0071 | 0.005 ± 0.0099
8 | BE3C:IL-1alpha | -0.0145 ± 0.011 | -0.013 ± 0.013 | -0.017 ± 0.0057 | -0.009 ± 0.0014 | 0.0045 ± 0.022 | 0.007 ± 0.0014 | 0.0185 ± 0.011 | -0.0195 ± 0.013 | 0.012 ± 0.0071 | 0.004 ± 0.037 | -0.009 ± 0.0014 | 0.0345 ± 0.042 | -0.0045 ± 0.0035 | 0.023 ± 0.017 | -0.0765 ± 0.026 | -0.0085 ± 0.0035 | 0.0115 ± 0.005 | -0.009 ± 0.0085 | -0.0095 ± 0.021 | -0.005 ± 0.0099 | -0.0005 ± 0.0078 | -0.0155 ± 0.005 | -0.041 ± 0.021 | -0.093 ± 0.0071 | -0.012 ± 0.0085
9 | LPS:SRB | 0.0015 ± 0.0092 | 0.0015 ± 0.0021 | -0.001 ± 0.0028 | -0.0085 ± 0.0021 | 0.006 ± 0.0042 | -0.0025 ± 0.0092 | 0.0005 ± 0.015 | 0.0005 ± 0.013 | -0.001 ± 0.0057 | 0.0055 ± 0.0078 | -0.002 ± 0.0028 | -0.0035 ± 0.005 | 0.005 ± 0.0014 | 0.0015 ± 0.012 | -0.0035 ± 0.013 | -0.0075 ± 0.021 | -0.0065 ± 0.0078 | -0.0015 ± 0.013 | -0.0055 ± 0.00071 | -0.0005 ± 0.0064 | -0.001 ± 0.023 | 0.0015 ± 0.00071 | -0.0265 ± 0.0021 | -0.151 ± 0.0064 | -0.006
10 | 4H:VEGFR2 | 0.0075 ± 0.0064 | 0.018 ± 0.013 | -0.0185 ± 0.037 | -0.0115 ± 0.033 | 0.023 ± 0.02 | -0.015 ± 0.0014 | 0.0695 ± 0.03 | -0.001 ± 0.068 | 0.03 ± 0.02 | -0.013 ± 0.054 | 0.028 ± 0.051 | 0.005 ± 0.059 | -0.048 ± 0.02 | -0.108 ± 0.011 | -0.0395 ± 0.013 | 0.0575 ± 0.028 | -0.011 ± 0.016 | 0.0325 ± 0.0078 | -0.0215 ± 0.012 | -0.101 ± 0.0064 | -0.026 ± 0.021 | 0.0365 ± 0.08 | -0.02 ± 0.023 | -0.138 ± 0.064 | 0.0305 ± 0.0021

Reference: the supplement of paper PMC10331698
